Data as given in PubChem BioAssay AID1259308 (NCATS, 2017)
Aim: 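Genes whose loss raises luciferase production in HEK293 cells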 (primary screen). Cell system: human HEK293 embryonic kidney cells stably expressing firefly luciferase (HEK-CMV-Luc2-Hygro). Reagents: single siRNA against human genes, 0.8 pmol siRNA per well. Timing: 72 h. Measured: 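Luciferase light (ONE-Glo) measured on one replicate plate set and viability (CellTiter-Glo) on the other, scaled to a negative control siRNA, with robust z-scores and luciferase per cell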. Direction: total luciferase, z-score: higher = more reporter protein produced. Call rule: 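Active when the median/MAD z-score for overall luciferase is greater than 3; a gene was taken forward for validation with new siRNAs if at least two of its three siRNAs passed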. Meaning of the calls: active = raised luciferase; inactive = no rise.
Shown is an unselected part of about 59,000 reagents. About 1,510 of all reagents (2.6%) count as active. 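Calls use total luciferase alone and ignore viability, so some active siRNAs may act by altering cell number.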 Further read-outs or replicates are left out here.

How did the screen score KIAA1614 [SID160746637]?
total luciferase, z-score: 1.95; Call: inactive

For KIAA1614 [SID160746639], what does the deposit list?
total luciferase, z-score: -0.249; Call: inactive

How did the screen score KIAA1614 [SID160746640]?
total luciferase, z-score: 0.56; Call: inactive

How did the screen score SERPINE2 (serpin family E member 2) [SID160714286]?
total luciferase, z-score: -0.184; Call: inactive

With SERPINE2 (serpin family E member 2) [SID160714287], how do the results read?
total luciferase, z-score: 2.44; Call: inactive

What is on record for SERPINE2 (serpin family E member 2) [SID160714288]?
total luciferase, z-score: -0.266; Call: inactive

Which result is listed for SAMSN1 (SAM domain, SH3 domain and nuclear localization signals 1) [SID160733214]?
total luciferase, z-score: 0.419; Call: inactive

With SAMSN1 (SAM domain, SH3 domain and nuclear localization signals 1) [SID160747433], what does the deposit list?
total luciferase, z-score: 0.307; Call: inactive

With SAMSN1 (SAM domain, SH3 domain and nuclear localization signals 1) [SID160747434], how do the results read?
total luciferase, z-score: -0.419; Call: inactive

For SAMSN1 (SAM domain, SH3 domain and nuclear localization signals 1) [SID160747436], what does the deposit list?
total luciferase, z-score: 0.623; Call: inactive

For SAMSN1 (SAM domain, SH3 domain and nuclear localization signals 1) [SID160765998], what does the deposit list?
total luciferase, z-score: 0.89; Call: inactive

With SAMSN1 (SAM domain, SH3 domain and nuclear localization signals 1) [SID160765999], how do the results read?
total luciferase, z-score: 1.71; Call: inactive

How did the screen score EPB41L3 (erythrocyte membrane protein band 4.1 like 3) [SID160735535]?
total luciferase, z-score: -0.352; Call: inactive

For EPB41L3 (erythrocyte membrane protein band 4.1 like 3) [SID160735536], how do the results read?
total luciferase, z-score: 0.168; Call: inactive

Which result is listed for EPB41L3 (erythrocyte membrane protein band 4.1 like 3) [SID160735537]?
total luciferase, z-score: 2.18; Call: inactive

What is on record for B3GALT9 (beta-1,3-galactosyltransferase 9) [SID160767440]?
total luciferase, z-score: -0.459; Call: inactive

With B3GALT9 (beta-1,3-galactosyltransferase 9) [SID160767441], what was measured?
total luciferase, z-score: -0.215; Call: inactive

Which result is listed for B3GALT9 (beta-1,3-galactosyltransferase 9) [SID160767442]?
total luciferase, z-score: -0.44; Call: inactive

Reformatted: entries from further up.
target gene | PubChem SID | total luciferase, z-score | Call
SERPINE2 (serpin family E member 2) | SID160714287 | 2.44 | inactive
SERPINE2 (serpin family E member 2) | SID160714288 | -0.266 | inactive

The list goes on:
For DNAH2 (dynein axonemal heavy chain 2) [SID160758407], how do the results read?
total luciferase, z-score: 0.399; Call: inactive

What did the screen give for DNAH2 (dynein axonemal heavy chain 2) [SID160758408]?
total luciferase, z-score: 2.85; Call: inactive

With DNAH2 (dynein axonemal heavy chain 2) [SID160758409], how do the results read?
total luciferase, z-score: -0.307; Call: inactive

With OLFM3 (olfactomedin 3) [SID160755617], how do the results read?
total luciferase, z-score: -0.823; Call: inactive

What is on record for OLFM3 (olfactomedin 3) [SID160755618]?
total luciferase, z-score: -0.648; Call: inactive

With OLFM3 (olfactomedin 3) [SID160755619], what does the deposit list?
total luciferase, z-score: 0.392; Call: inactive

What did the screen give for TEX26 (testis expressed 26) [SID160732382]?
total luciferase, z-score: -0.418; Call: inactive

For TEX26 (testis expressed 26) [SID160755958], what does the deposit list?
total luciferase, z-score: -0.4; Call: inactive

With TEX26 (testis expressed 26) [SID160755960], what does the deposit list?
total luciferase, z-score: -0.898; Call: inactive

With SLC7A8 [SID160736266], what was measured?
total luciferase, z-score: -0.987; Call: inactive

For SLC7A8 [SID160736267], what was measured?
total luciferase, z-score: 0.544; Call: inactive

With SLC7A8 [SID160736269], what was measured?
total luciferase, z-score: 0.966; Call: inactive

For HMGN2P31 [SID160725864], what does the deposit list?
total luciferase, z-score: 0.414; Call: inactive

With HMGN2P31 [SID160769732], how do the results read?
total luciferase, z-score: 0.1; Call: inactive

How did the screen score HMGN2P31 [SID160769733]?
total luciferase, z-score: -0.423; Call: inactive
